Reference: PubChem BioAssay AID1259308 (NCATS, 2017)
Screen: 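Candidate targets for better recombinant protein yield in mammalian cells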 (primary screen). Cells: human HEK293 embryonic kidney cells stably expressing firefly luciferase (HEK-CMV-Luc2-Hygro). Knock-down reagent: single siRNA against human genes, 0.8 pmol siRNA per well. Time to read-out: 72 h. Detection: 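Luciferase light (ONE-Glo) measured on one replicate plate set and viability (CellTiter-Glo) on the other, scaled to a negative control siRNA, with robust z-scores and luciferase per cell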. Scale: total luciferase, z-score and total luciferase, % of control: higher = more reporter protein produced; luciferase per cell, z-score: higher = more reporter output per viable cell; viable cells, % of control: higher = more viable cells. Hit rule: 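Active when the median/MAD z-score for overall luciferase is greater than 3; a gene was taken forward for validation with new siRNAs if at least two of its three siRNAs passed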. Meaning of the calls: active = raised luciferase; inactive = no rise.
This is one part, drawn at random, of about 59,000 reagents tested. About 1,510 of them (2.6%) were called active. 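Calls use total luciferase alone and ignore viability, so some active siRNAs may act by altering cell number.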 A number with no mark means an inactive call. The numbers tell different reagents against one gene apart.

The first 4 records, ahead of the listing:
no.	gene symbol	reagent no.	total luciferase, z-score	total luciferase, % of control	luciferase per cell, z-score	viable cells, % of control
1	OR2T2 (olfactory receptor family 2 subfamily T member 2)	1	-0.923	63.5	-1.19	97.1
2	OR2T2 (olfactory receptor family 2 subfamily T member 2)	2	0.713	96.1	-0.081	110
3	OR2T2 (olfactory receptor family 2 subfamily T member 2)	3	0.403	89.9	-0.3	109
4	TCF4 (transcription factor 4)	1	-1.04	61.3	-1.74	108

The listing, from the first entry:
no.	gene symbol	reagent no.	total luciferase, z-score	total luciferase, % of control	luciferase per cell, z-score	viable cells, % of control
1	OR2T2 (olfactory receptor family 2 subfamily T member 2)	1	-0.923	63.5	-1.19	97.1
2	OR2T2 (olfactory receptor family 2 subfamily T member 2)	2	0.713	96.1	-0.081	110
3	OR2T2 (olfactory receptor family 2 subfamily T member 2)	3	0.403	89.9	-0.3	109
4	TCF4 (transcription factor 4)	1	-1.04	61.3	-1.74	108
5	TCF4 (transcription factor 4)	2	0.864	99.1	0.648	93.3
6	TCF4 (transcription factor 4)	3	0.316	88.2	0.315	90.7
7	ZC3H12B (zinc finger CCCH-type containing 12B)	1	0.146	84.8	-0.649	112
8	ZC3H12B (zinc finger CCCH-type containing 12B)	2	-1.32	55.7	-1.11	83.3
9	ZC3H12B (zinc finger CCCH-type containing 12B)	3	-0.312	75.7	-0.35	92.7
10	GPRIN3 (GPRIN family member 3)	1	2.92	140	4.85	43.6
11	GPRIN3 (GPRIN family member 3)	2	-1.07	60.5	-0.478	76.7
12	GPRIN3 (GPRIN family member 3)	3	0.083	83.5	0.199	88.6
13	CALY (calcyon neuron specific vesicular protein)	1	1.49	112	2	73.8
14	CALY (calcyon neuron specific vesicular protein)	2	-0.17	78.5	0.396	79
15	CALY (calcyon neuron specific vesicular protein)	3	-1.09	60.3	0.491	59.2
16	TINAG (tubulointerstitial nephritis antigen)	1	-0.58	70.4	-0.0355	79.4
17	TINAG (tubulointerstitial nephritis antigen)	2	-1.22	57.6	-1.73	102
18	TINAG (tubulointerstitial nephritis antigen)	3	-0.266	76.6	-0.417	95.5
19	MAPKAPK3 (MAPK activated protein kinase 3)	1	4.67 (active)	175	2.87	91.8
20	MAPKAPK3 (MAPK activated protein kinase 3)	2	-1.88	44.5	-1.65	76.8
21	MAPKAPK3 (MAPK activated protein kinase 3)	3	-0.745	67.1	-1.44	110
22	KRCC1 (lysine rich coiled-coil 1)	1	-0.05	80.9	-0.279	97.3
23	KRCC1 (lysine rich coiled-coil 1)	2	0.639	94.6	0.748	86.8
24	KRCC1 (lysine rich coiled-coil 1)	3	-0.216	77.6	-0.907	110
25	PLEKHA4 (pleckstrin homology domain containing A4)	1	-0.248	77	0.443	76.5
26	PLEKHA4 (pleckstrin homology domain containing A4)	2	-0.426	73.4	0.0746	80.4
27	PLEKHA4 (pleckstrin homology domain containing A4)	3	0.347	88.8	-0.391	110
28	SIRT2 (sirtuin 2)	1	-1.1	60.1	-1.08	89.3
29	SIRT2 (sirtuin 2)	2	0.0343	82.6	1.6	60.6
30	SIRT2 (sirtuin 2)	3	0.0237	82.4	-0.103	94.6
31	GATA5 (GATA binding protein 5)	1	0.539	92.6	0.103	101
32	GATA5 (GATA binding protein 5)	2	1.15	105	1.64	76.1
33	GATA5 (GATA binding protein 5)	3	-0.144	79	-0.471	100
34	LRIT3 (leucine rich repeat, Ig-like and transmembrane domains 3)	1	-0.89	64.2	-0.545	82.8
35	LRIT3 (leucine rich repeat, Ig-like and transmembrane domains 3)	2	0.133	84.5	-0.524	108
36	LRIT3 (leucine rich repeat, Ig-like and transmembrane domains 3)	3	0.0929	83.7	0.229	88.1
37	TMEM88 (transmembrane protein 88)	1	-2.3	36.2	-2.61	80.5
38	TMEM88 (transmembrane protein 88)	2	1.36	109	1.86	74.7
39	TMEM88 (transmembrane protein 88)	3	-2.27	36.8	-1.63	63.1
